Protein sequences, listed by entry. Tags and fused reporters are not part of them. Lines headed by an entry give the natural chain unless they say otherwise; changes in a name come on top.
UniProt P06536: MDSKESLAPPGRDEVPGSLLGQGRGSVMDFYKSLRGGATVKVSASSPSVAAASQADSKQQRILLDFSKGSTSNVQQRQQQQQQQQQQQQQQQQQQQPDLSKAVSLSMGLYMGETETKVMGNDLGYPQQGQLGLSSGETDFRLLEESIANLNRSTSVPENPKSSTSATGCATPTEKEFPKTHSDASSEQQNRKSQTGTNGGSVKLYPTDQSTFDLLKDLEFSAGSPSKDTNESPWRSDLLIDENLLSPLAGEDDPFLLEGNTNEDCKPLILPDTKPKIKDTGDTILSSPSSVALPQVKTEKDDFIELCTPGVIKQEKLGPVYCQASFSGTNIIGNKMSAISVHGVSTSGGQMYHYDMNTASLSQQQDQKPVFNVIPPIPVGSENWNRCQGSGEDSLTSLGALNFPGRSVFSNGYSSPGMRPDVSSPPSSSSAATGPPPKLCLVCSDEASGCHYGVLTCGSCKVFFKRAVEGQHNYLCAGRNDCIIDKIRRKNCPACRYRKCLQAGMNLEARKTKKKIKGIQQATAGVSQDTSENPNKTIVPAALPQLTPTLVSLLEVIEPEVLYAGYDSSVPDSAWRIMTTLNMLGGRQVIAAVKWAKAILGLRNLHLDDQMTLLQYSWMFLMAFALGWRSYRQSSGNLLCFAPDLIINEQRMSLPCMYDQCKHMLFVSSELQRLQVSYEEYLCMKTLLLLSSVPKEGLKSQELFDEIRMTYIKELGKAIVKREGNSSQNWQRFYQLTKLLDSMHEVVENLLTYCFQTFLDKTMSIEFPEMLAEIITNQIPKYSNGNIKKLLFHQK

In US6348317B1, “Fluorescent and DNA cleavage properties of peptide/dye conjugates” (The Arizona Board of Regents, priority 1999, dated 2002):

Key:
[1] = target: T1, GR N-terminal zinc finger peptide (ZF, GR residues 438-465) (UniProt P06536); assay: FP; conditions: unconjugated ZF, 50 nM labelled DNA; 20 mM Tris pH 7.9, 30 mM NaCl, 20 mM KCl, 1 mM MgCl2, 5% glycerol, ZnCl2; synthetic protein; label: fluorescein; variant of GRE2
T1 sequence: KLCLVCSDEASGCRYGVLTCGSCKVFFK

[2] = target: T2, TO-ZF (thiazole orange-GR zinc finger conjugate) (UniProt P06536); assay: binding assay; conditions: fluorescein quenching by energy transfer; 20 mM Tris pH 7.9, 30 mM NaCl, 20 mM KCl, 1 mM MgCl2, 5% glycerol, ZnCl2; synthetic protein; label: fluorescein; variant of GRE2
T2 sequence: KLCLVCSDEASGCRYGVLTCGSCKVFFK

TGATACGGCTGACTGTTCTATGA (double strand) [F-GRE2]
Kd [1]: 1100 nM
Kd [2]: 14 nM

For at least one entry, the source does not settle the construct or the ends of the probe. Tags and fusion partners may be left off the protein sequences shown.
